Among all 360,000 compounds or so, about 9,100 (2.5%) were called active. Inconclusive results, whose numbers are uncertain, are shown with a selection of clear calls. Cut-off read from the data, not from the text of the source: active = max response below about -50%; inconclusive = no clear call, values can overlap the other calls; inactive = above that.
molecular target: D(3) dopamine receptor (Homo sapiens) (UniProt P35462); assay: qHTS of D3 Dopamine Receptor Antagonist: qHTS; details: D3R cells, DiscoveRx beta-arrestin luminescence, antagonist mode; active compounds read low
Source text: D3 DARs represent a very important target for the treatment of several neuropsychiatric disorders. Indeed, one of the most promising therapeutic applications for the D3 DAR is in the area of addiction and related disorders. […] These findings have been observed with a number of addictive substances including cocaine, amphetamine, nicotine, and alcohol. […] Antagonism of the D3 DAR may also be therapeutic in the treatment of schizophrenia or psychosis. […] Since the D3 DAR is expressed in areas of the CNS associated with the control of mood and emotion, it has been hypothesized that selective antagonism of the D3 DAR may be effective in treating psychosis without inducing the motor side effects typically seen with D2 DAR antagonists.
This part of the project aims to discover novel antagonist.
NIH Chemical Genomics Center [NCGC]
NIH Molecular Libraries Probe Centers Network [MLPCN]
Assay Submitter (PI): David Sibley, NINDS
Freshly passaged cells are plated in 1536 well white, solid bottom plates at a density of 1500 cells/well in 3microl of complete media. After an overnight incubation at 37 degrees C in 5% CO2, cells are loaded with 23nl of test compound from the compound library (as well as dopamine controls) using a 1536 pintool and incubated at 37 degrees C for 90 minutes. Two microliters of DiscoveRx reagent is then added to all cells, and they are incubated for an additional 30 - 60 minutes at room temperature. Following incubation, luminescence is measured on a ViewLux CCD-based luminometer reader using a 20 sec exposure time.
% is set by controls: 0 for no effect and ±100 for the full control effect.

Amino acid sequences for entries named in this document (tags omitted).
UniProt P35462, whole entry, looked up: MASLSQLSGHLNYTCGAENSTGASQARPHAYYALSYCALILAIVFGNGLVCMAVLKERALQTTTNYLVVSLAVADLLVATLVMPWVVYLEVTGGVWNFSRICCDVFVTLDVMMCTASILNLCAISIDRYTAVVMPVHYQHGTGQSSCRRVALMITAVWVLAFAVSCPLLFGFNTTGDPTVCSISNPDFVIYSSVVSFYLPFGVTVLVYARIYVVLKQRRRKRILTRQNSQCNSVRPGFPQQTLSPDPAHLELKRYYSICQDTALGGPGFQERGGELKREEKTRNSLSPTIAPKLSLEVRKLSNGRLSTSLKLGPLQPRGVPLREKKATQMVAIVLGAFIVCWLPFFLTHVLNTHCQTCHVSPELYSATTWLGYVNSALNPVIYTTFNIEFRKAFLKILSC

| SMILES | max response, negative = inhibition |
| --- | --- |
| Cc1ccnc2c1ccc1cccnc12 | active: -95.1% |
| Cc1cc(C)c(S(=O)(=O)N2CCCOC2CNC(=O)C(=O)NCc2ccncc2)c(C)c1 (stereo not given) | inactive: 0% |
| Cc1cc(NC(=O)c2ccc(Br)o2)ccc1NC(=O)c1ccco1 | inactive: 0.168% |
| CCCCN(CCCNC(=O)c1c(C)cc(=O)oc1C)c1ccccc1 | inconclusive: -35.3% |
| COc1ccc(CCNC(=O)CSc2ncnc3c2oc2ccccc23)cc1OC | inconclusive: -40.6% |
| Cc1[nH]c(=O)cc2ccccc12 | inconclusive: -34.2% |
| C[C@H](CO)N1C[C@H](C)[C@H](CN(C)Cc2ccncc2)OCc2ccccc2-c2c(n(C)c3ccccc23)C1=O | inactive: -2.26% |
| C=CCn1c(=NC(=O)C2COc3ccccc3O2)sc2cccc(OC)c21 (stereo not given) | inactive: 54% |
| OCCN1CCN(C(=S)c2ccc(-c3ccccc3)cc2)CC1 | inactive: -6.47% |
| O=C(N/N=C/C(Br)=C\c1ccccc1)c1n[nH]c2c1CCC2 | inconclusive: -39.2% |
| O=C(Nc1ccc2ccccc2c1)c1cn(-c2ccccc2)nc1-c1cccs1 | inconclusive: -33.7% |
| CCN(CCC(=O)O)c1ccccc1 | inconclusive: -30% |
| CC(=O)Nc1ccc(C2=CC(=O)CC(C)(C)C2)cc1 | inconclusive: -44.1% |
| COc1ccc(CNC(=O)c2ccc3c(c2)N(C)CCS3)cc1 | inconclusive: -38.8% |
| Cc1ccc(N(CC(=O)N/N=C/c2cc(C)n(-c3ccccc3C)c2C)S(C)(=O)=O)cc1 | inactive: -19% |
| O=[N+]([O-])c1ccccc1CS(=O)(=O)c1ccccc1 | inconclusive: -32.6% |
| CC(C)Cn1c(=O)c(C(=O)Nc2cnccn2)c(O)c2ccccc21 | inconclusive: -30.1% |
| Cc1ccc(/C=C/C(=O)N2CC(C)CC(C)C2)o1 (stereo not given) | inconclusive: -30.6% |
| CCn1c(=O)cc(OCC(=O)N(C)c2ccccc2F)c2ccccc21 | inactive: -6.47% |
| O=C(NCCC1=CCCCC1)C1CCC(CNc2nc(=S)[nH]c3ccccc23)CC1 (stereo not given) | active: -83.4% |
| CCC12CCCN3CCc4c(n(c5ccccc45)C(O)(C(=O)OC)C1)C32 (stereo not given) | inconclusive: -42.5% |
| C=CCN(c1ccccc1)S(=O)(=O)c1cccc(C(=O)O)c1 | inconclusive: -37.3% |
| COC(=O)c1ccc(CNC(=O)Cn2cnc3c(NCc4ccccc4)ncnc32)cc1 | inconclusive: -32.6% |
| Cc1ccc(NC(=O)C2=C(O)c3sccc3N(C)S2(=O)=O)cc1 | inconclusive: -46% |
| CC1CN(C(=O)Cn2cnc3c2c(=O)n(C)c(=O)n3C)CC(C)O1 (stereo not given) | inconclusive: -38.6% |

Three entries out of the list, sorted by length of the SMILES, rising:

| SMILES | max response, negative = inhibition |
| --- | --- |
| CCCCN(CCCNC(=O)c1c(C)cc(=O)oc1C)c1ccccc1 | inconclusive: -35.3% |
| COc1ccc(CCNC(=O)CSc2ncnc3c2oc2ccccc23)cc1OC | inconclusive: -40.6% |
| CC1CN(C(=O)Cn2cnc3c2c(=O)n(C)c(=O)n3C)CC(C)O1 (stereo not given) | inconclusive: -38.6% |
